From PubChem BioAssay AID2685 (National Center for Advancing Translational Sciences (NCATS), 2010)
This is one part of the list. Shown are side measurements of this screen, not its main read-out; they come without a call. Most of these compounds were active or inconclusive in the main read-out, so they are no random draw. The note in brackets gives the kind of curve behind each potency; many fits are weak.

Assay: qHTS Assay for Lipid Storage Modulators in Drosophila S3 Cells;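 as to cell number change: cells counted by Cell Tracker Red CMTPX staining in the red channel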
Conditions: BODIPY lipid droplet fluorescence, 18-24 h; for cell number change: measured here: cell count max response, cells fed with added oleic acid
Procedure, shortened: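 Drosophila S3 cells got compounds at several concentrations plus oleic acid (400 uM solution). Laser-scanning cytometry with 488 nm excitation read lipid droplets at 500-530 nm and cells at 575-640 nm. Percent activity was relative to 20 uM Triacsin C.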

[1] = measured here: cell number channel AC50, cells fed with added oleic acid
[2] = measured here: lipid fluorescence (Fed channel) AC50, cells fed with added oleic acid

Row | Compound | AC50 [1] | AC50 [2] | cell number change [%]
1 | CCOC(=O)c1nn(-c2ccccc2C)c(=O)c(C#N)c1C | 0.13 µM [falling, full curve, poor fit] | 0.13 µM [falling, full curve, poor fit] | 
2 | Cc1ccc(S(=O)(=O)N(C)c2ccc(N)cc2)cc1 | 0.092 µM [rising, partial curve] | 1.64 µM [rising, partial curve] | 4.5
3 | CC1CCN(C(=O)CSc2nnc3c(n2)[nH]c2ccccc23)CC1 |  |  | -11.5
4 | COc1ccc(-c2ccc(CCC(=O)O)n2CC(=O)Nc2ccccc2C)cc1 |  | 2.91 µM [rising, partial curve, poor fit] | 11.3
5 | CCC(C)C(NC(=O)OCc1ccccc1)C(=O)NCC(c1ccccc1)N(C)C (stereo not given) |  | 0.00461 µM [rising, full curve, poor fit] | 22.9
6 | Cc1ccc(/C=N/Nc2ccc(C(=O)O)cc2)s1 |  | 1.64 µM [falling, partial curve, poor fit] | 2.59
7 | CN(C)S(=O)(=O)c1cccc(NC(=O)c2cc(-c3cccs3)nn2-c2ccccc2)c1 | 0.82 µM [rising, single point] |  | 
8 | CCOC(=O)Nc1ccccc1N1C(=O)c2ccccc2C1=O |  | 10.3 µM [falling, single point] | -6.31
9 | CC(C)(C)C(=O)C1=C(O)C(=O)N(c2ccccc2)C1c1ccccc1 (stereo not given) |  | 0.58 µM [falling, single point] | -29.4
10 | CCCCc1cc(=O)oc2c(C)c(OCC(=O)N3C[C@H]4C[C@@H](C3)c3cccc(=O)n3C4)ccc12 |  |  | 13.4
11 | O=C1c2ccccc2C(=O)N1C1CCCCC1 |  | 29.1 µM [falling, single point] | -14.8
12 | Cc1ccccc1NC(=O)CN1C(=O)S/C(=C\c2ccc(-c3cc(C(=O)O)ccc3C)o2)C1=O |  | 0.651 µM [falling, full curve, poor fit] | 0.637
13 | COc1ccc(C(=O)NCC(=O)N2CCCCC2)cc1OC |  | 32.6 µM [falling, single point] | 
14 | O=C(O[C@@H](C(=O)O)[C@@H](OC(=O)c1ccccc1)C(=O)O)c1ccccc1 |  | 9.2 µM [rising, single point] | 2.15
15 | COCCCNC(=O)/C=C/c1ccc(Cl)cc1 |  | 1.84 µM [rising, single point] | 25
16 | Cc1ccc(NC(=O)C2CCC(N3C(=O)C4CCCCC4C3=O)CC2)cc1 (stereo not given) |  |  | 5.13
17 | COc1ccc(N/C=C/c2nc(SC)nnc2C)cc1 | 2.31 µM [rising, full curve] | 3.26 µM [rising, partial curve] | 50.3
18 | Cc1nc2ncnn2c(C)c1CCC(=O)N1CCc2ccccc2C1 |  | 0.0517 µM [rising, full curve, poor fit] | 9.14
19 | COc1ccccc1N(CC(=O)N/N=C(\C)c1ccccc1O)S(=O)(=O)c1ccc(C)cc1 |  | 6.51 µM [falling, single point] | -23.4

Quoted from the listing.
Cc1ccc(S(=O)(=O)N(C)c2ccc(N)cc2)cc1 – cell number change [%]: 4.5
CC(C)(C)C(=O)C1=C(O)C(=O)N(c2ccccc2)C1c1ccccc1 (stereo not given) – AC50 [2]: 0.58 µM [falling, single point]

(continued)

Row | Compound | AC50 [1] | AC50 [2] | cell number change [%]
20 | Cc1ccc(CCNC(=O)CCS(=O)(=O)c2cc3c(cc2C)NC(=O)CO3)cc1 | 13 µM [rising, single point] |  | 37.8
21 | Cc1ccc(C(=O)n2cnc3ccccc32)cc1C |  | 29.1 µM [rising, single point] | 
22 | CCN(Cc1cc2ccccc2[nH]c1=O)S(=O)(=O)c1ccc(OC)cc1 | 16.4 µM [falling, single point] | 29.1 µM [falling, single point] | -31.9
23 | CC(=O)c1ccc(S(=O)(=O)NC2CC(=O)N(c3cccc(F)c3)C2)cc1 (stereo not given) |  | 3.66 µM [rising, single point] | 
24 | Cc1onc(-c2ccccc2Cl)c1C(=O)N1CCCCCC1 |  | 20.6 µM [falling, partial curve] | 
25 | CC(C)OC(=O)/C(C#N)=C/c1cn(C)c2ccccc12 | 1.46 µM [rising, partial curve] |  | 13.7
26 | Fc1ccc(/C=N/N2CCOCC2)c(F)c1 | 29.1 µM [rising, partial curve, poor fit] |  | 84.3
27 | CCSc1nnc(NC(=O)NC(CC)(C(F)(F)F)C(F)(F)F)s1 | 20.6 µM [falling, partial curve] | 23.1 µM [falling, single point] | -70.7
28 | Cc1c(C(=O)NCCSCc2ccco2)cccc1[N+](=O)[O-] |  |  | -1.73
29 | CC1=C(C(=O)Nc2ccccc2)C(c2cccs2)C(C#N)=C(SCC#N)N1 (stereo not given) | 29.1 µM [rising, single point] | 29.1 µM [rising, partial curve, poor fit] | 44.7
30 | O=C(NC(=S)Nc1ccc(CN2CCOCC2)cc1)c1ccc(-c2cccc(Cl)c2)o1 |  |  | 15.2
31 | CN(CCOc1ccc(Cl)cc1)CC(=O)Nc1ccc(OC(F)(F)F)cc1 | 29.1 µM [falling, single point] | 16.4 µM [falling, single point] | -54.4
32 | Cc1cc(C)c(C#N)c(SCc2nc3ccccc3[nH]2)n1 | 0.164 µM [rising, full curve] | 0.092 µM [rising, full curve, poor fit] | 
33 | CCCCC(=O)Nc1ccc2c(c1)nc1n2CCSC1 |  | 1.46 µM [rising, partial curve] | 17.2
34 | COc1ccc(-c2sc3ccccc3c2C#CCCO)cc1 |  |  | -10.8
35 | CN(CC(=O)Nc1ccccc1Cl)C(=O)C1CSC2(C)CCC(=O)N12 (stereo not given) | 0.82 µM [falling, full curve] | 0.58 µM [falling, full curve] | -37.2
36 | O=C(O)Cn1cc(C(=O)c2cccs2)c2ccccc21 | 6.51 µM [falling, single point] |  | 7.26
37 | CC(Sc1n[nH]c(N)n1)C(=O)NC1CCCCC1C (stereo not given) |  | 29.1 µM [rising, single point] | 21
38 | C/C(=N\Nc1nc2ccccc2[nH]1)c1cc2ccccc2o1 | 16.4 µM [falling, partial curve] | 16.4 µM [falling, partial curve] | -68.2

Shown tab-delimited: part of the list above.
Row	Compound	AC50 [1]	AC50 [2]	cell number change [%]
4	COc1ccc(-c2ccc(CCC(=O)O)n2CC(=O)Nc2ccccc2C)cc1		2.91 µM [rising, partial curve, poor fit]	11.3
36	O=C(O)Cn1cc(C(=O)c2cccs2)c2ccccc21	6.51 µM [falling, single point]		7.26

The list continues.

Row | Compound | AC50 [1] | AC50 [2] | cell number change [%]
39 | COc1ccc(NS(=O)(=O)c2ccc(NS(=O)(=O)c3cccc(C(=O)O)c3)cc2)cc1 |  | 0.116 µM [falling, single point] | -5.13
40 | CC(C)c1ccc(S(=O)(=O)N2CCN(C(=O)C3CCCCC3)CC2)cc1 |  | 6.51 µM [falling, single point] | 3.28
41 | Cc1cc(OCC(O)CN2CCc3ccccc3C2)cc(C(C)C)c1 (stereo not given) | 18.4 µM [falling, partial curve] | 18.4 µM [falling, partial curve] | -65.7
42 | CCN(C(=O)CSc1cc(C)c2ccccc2n1)c1c(N)n(Cc2ccccc2)c(=O)[nH]c1=O |  | 8.2 µM [falling, partial curve] | -13.9
43 | O=C(CNC(=O)C1CCCCC1)OCc1cc(=O)oc2ccc3ccccc3c12 |  |  | -7.81
44 | NS(=O)(=O)c1ccc(CCNC(=O)c2cc(-c3ccccc3)nc3ccccc23)cc1 | 4.11 µM [rising, partial curve] | 4.61 µM [rising, single point] | -26.8
45 | COc1ccc2[nH]c3c(NCCC4=CCCCC4)ncnc3c2c1 | 13 µM [falling, partial curve] | 9.2 µM [falling, partial curve] | -51.7
46 | CC(C)Nc1nc(NC(C)C)nc(OCCOC(=O)c2ccccc2)n1 |  | 4.61 µM [rising, single point] | -16.9
47 | COc1ccc(CNC(=O)/C=C/c2ccc(OCCCF)cc2)cc1OC | 7.31 µM [falling, partial curve] | 13 µM [falling, partial curve] | -43.4
48 | CN(C)C(C)(C)C#CC(O)(c1ccccc1)c1ccccc1 |  |  | 17.5
49 | C#CCOCCOCCOCCNc1nc(N2CCN(C(=O)Cn3cc(CC(C)O)nn3)CC2)nc(N2CCN(C(=O)Cn3cc(CC(C)O)nn3)CC2)n1 (stereo not given) |  | 29.1 µM [falling, single point] | -27.2
50 | CC(=O)N1CCN(c2ccc(NC(=S)NC(=O)c3ccccc3)cc2)CC1 | 29.1 µM [rising, single point] | 23.1 µM [rising, single point] | 85.8
51 | CC(=O)c1cc2c(cc1NS(=O)(=O)c1ccccc1F)OCO2 | 8.2 µM [rising, partial curve] | 29.1 µM [rising, single point] | 41.2
52 | O=C(COC(=O)c1ccc[nH]c1=O)NCCc1ccc(F)cc1 | 18.4 µM [falling, partial curve, poor fit] | 8.2 µM [falling, partial curve] | -38.1
53 | Cc1ccccc1Nc1nc(N)nc(CSc2nnc(C)n2C)n1 | 29.1 µM [rising, partial curve, poor fit] | 4.61 µM [falling, single point] | 55.1
54 | COc1ccc(NC(=O)CN(C)C(=O)Cc2ccc(-c3ccccc3)cc2)cc1 |  | 29.1 µM [falling, single point] | -22.2
55 | O=C(NCC1CC1)c1onc(CSc2nc3ccccc3[nH]2)c1C(=O)NCC1CC1 |  | 23.1 µM [falling, single point] | 
56 | CC(=O)Nc1ccc(-c2nnc(SCc3ccc(C)cc3)n2C)cc1 | 7.31 µM [rising, partial curve] |  | 81.4
57 | COCCNc1nc(-n2nc(C)cc2C)nc2sc3c(c12)CCCC3 |  |  | -13.6
